Data reported in US10611757B2, “Crystalline form of chemical compound, and preparation method, composition, and application thereof” (WUHAN LL SCIENCE AND TECHNOLOGY DEVELOPMENT CO., LTD., priority 2016, dated 2020).
Some entries share one result that the patent states for a list of compounds.

System: spontaneously hypertensive rats
Assay: Antihypertensive efficacy test in spontaneously hypertensive rats (systolic blood pressure and heart rate by implanted sensor)
Assay type: in vivo, rat
Conditions: SHR, intragastric, 1 mg/kg; systolic blood pressure
Description: 12-week-old spontaneously hypertensive rats (hereinafter referred to as SHR, purchased from Beijing Weitong Lihua Experimental Animal Technology Co., Ltd.) were anesthetized with 2.5% sodium pentobarbital for intraperitoneal injection. After that, the blood pressure sensing catheter of hypertension implant was inserted into their abdominal aorta, while the implant was fixed to the abdominal wall, and then postoperative daily care was performed after suturing.
Rats with systolic blood pressure exceeding 160 mm Hg were divided into 3 groups (control group, compound (A) group and compound (B) group), wherein each group has 8 rats. The control group was administrated 0.5% sodium carboxymethyl cellulose (hereinafter referred to as CMC-Na); the compound (B) group and the compound (A) group were respectively administered the compound (B) and the compound (A), both of which were dissolved by 0.5% CMC-Na, by intragastric administration, at a dose of 1 mg/kg (calculated by the effective dose of valsartan) and a volume calculated by 4 mL/kg.
The systolic blood pressure and heart rate of SHR were compared before and after administration (the systolic blood pressure and heart rate of SHR before administration as reference value), which were detected three times at each time point with the average value recorded.

SMILES: CCOc1nc2cccc(C(=O)OC(C)OC(=O)OCc3nc(C)c(C)nc3C)c2n1Cc1ccc(-c2ccccc2-c2noc(=O)[n-]2)cc1.[K+] (stereo not shown) [Compound (A)]
- time of peak drug efficacy after administration: 5 to 7 h
